The text below walks through data of PMC12954580, “Multivalent glycoligands with lectin/enzyme dual specificity: self-deliverable glycosidase regulators” (Chemical Communications (Cambridge, England), 2019).

Chains of the proteins cited; added tags and fusions are not shown. Residues count along the entry.
UniProt P04062, 40-536 limits assumed: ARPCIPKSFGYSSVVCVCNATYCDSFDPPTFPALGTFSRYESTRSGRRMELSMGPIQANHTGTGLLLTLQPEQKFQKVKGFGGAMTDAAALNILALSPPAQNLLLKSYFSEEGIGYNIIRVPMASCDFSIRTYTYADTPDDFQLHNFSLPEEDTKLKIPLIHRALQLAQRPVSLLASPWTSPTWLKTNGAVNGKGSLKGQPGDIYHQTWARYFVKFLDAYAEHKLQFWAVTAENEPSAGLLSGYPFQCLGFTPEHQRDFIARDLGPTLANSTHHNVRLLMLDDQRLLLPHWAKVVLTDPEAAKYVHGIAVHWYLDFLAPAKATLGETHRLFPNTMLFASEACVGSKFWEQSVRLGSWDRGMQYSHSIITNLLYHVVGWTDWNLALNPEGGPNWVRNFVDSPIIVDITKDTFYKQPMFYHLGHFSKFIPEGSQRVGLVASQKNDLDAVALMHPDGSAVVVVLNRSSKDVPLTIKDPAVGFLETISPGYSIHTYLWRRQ
UniProt P53341, whole entry: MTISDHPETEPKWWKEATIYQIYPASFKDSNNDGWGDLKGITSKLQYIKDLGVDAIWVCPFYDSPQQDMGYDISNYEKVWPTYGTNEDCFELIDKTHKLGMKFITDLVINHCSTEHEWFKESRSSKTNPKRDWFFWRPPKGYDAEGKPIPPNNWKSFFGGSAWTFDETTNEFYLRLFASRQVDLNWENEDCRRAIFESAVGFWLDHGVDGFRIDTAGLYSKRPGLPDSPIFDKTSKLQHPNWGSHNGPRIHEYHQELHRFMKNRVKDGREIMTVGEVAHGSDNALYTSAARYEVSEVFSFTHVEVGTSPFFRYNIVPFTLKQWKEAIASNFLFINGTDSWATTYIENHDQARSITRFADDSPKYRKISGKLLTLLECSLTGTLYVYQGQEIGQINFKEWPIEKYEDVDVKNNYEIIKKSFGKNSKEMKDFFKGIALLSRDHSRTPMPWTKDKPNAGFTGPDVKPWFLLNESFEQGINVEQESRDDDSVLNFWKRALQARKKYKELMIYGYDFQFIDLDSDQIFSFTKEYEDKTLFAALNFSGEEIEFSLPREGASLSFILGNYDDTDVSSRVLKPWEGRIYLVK
UniProt O00754, 50-1011 limits assumed: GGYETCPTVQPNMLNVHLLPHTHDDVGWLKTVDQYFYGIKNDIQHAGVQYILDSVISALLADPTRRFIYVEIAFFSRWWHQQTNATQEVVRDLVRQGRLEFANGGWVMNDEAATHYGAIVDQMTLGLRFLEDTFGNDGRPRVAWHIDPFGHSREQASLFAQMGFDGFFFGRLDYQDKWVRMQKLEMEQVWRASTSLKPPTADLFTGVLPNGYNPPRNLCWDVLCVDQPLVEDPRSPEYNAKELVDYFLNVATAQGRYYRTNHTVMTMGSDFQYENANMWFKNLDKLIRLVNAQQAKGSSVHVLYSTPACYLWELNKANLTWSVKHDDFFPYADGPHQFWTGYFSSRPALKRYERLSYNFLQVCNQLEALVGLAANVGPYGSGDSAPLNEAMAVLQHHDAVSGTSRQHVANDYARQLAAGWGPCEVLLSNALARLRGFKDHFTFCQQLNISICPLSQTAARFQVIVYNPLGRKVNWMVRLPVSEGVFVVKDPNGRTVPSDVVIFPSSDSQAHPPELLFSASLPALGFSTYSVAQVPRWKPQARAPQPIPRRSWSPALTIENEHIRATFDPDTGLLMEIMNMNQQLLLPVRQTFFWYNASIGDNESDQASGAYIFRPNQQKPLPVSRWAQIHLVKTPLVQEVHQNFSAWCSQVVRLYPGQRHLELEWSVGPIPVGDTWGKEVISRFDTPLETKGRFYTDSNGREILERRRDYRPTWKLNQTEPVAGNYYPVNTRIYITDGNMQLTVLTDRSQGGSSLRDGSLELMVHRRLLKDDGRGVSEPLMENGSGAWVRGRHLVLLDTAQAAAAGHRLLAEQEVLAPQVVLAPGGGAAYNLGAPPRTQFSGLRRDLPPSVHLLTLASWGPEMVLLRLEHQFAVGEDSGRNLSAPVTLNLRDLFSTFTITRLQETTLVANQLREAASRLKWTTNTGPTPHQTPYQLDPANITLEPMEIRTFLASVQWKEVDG
UniProt Q42656, 16-378 limits assumed: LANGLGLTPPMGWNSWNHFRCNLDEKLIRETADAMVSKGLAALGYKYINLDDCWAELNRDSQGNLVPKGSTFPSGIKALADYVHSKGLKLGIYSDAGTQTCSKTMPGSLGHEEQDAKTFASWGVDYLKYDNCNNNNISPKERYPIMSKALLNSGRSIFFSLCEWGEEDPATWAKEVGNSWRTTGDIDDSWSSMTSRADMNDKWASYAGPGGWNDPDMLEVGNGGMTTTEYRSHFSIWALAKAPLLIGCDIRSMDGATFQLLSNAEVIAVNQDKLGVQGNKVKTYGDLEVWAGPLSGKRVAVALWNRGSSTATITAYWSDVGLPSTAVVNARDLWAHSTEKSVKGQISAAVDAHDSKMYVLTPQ
UniProt C0HJB3, whole entry: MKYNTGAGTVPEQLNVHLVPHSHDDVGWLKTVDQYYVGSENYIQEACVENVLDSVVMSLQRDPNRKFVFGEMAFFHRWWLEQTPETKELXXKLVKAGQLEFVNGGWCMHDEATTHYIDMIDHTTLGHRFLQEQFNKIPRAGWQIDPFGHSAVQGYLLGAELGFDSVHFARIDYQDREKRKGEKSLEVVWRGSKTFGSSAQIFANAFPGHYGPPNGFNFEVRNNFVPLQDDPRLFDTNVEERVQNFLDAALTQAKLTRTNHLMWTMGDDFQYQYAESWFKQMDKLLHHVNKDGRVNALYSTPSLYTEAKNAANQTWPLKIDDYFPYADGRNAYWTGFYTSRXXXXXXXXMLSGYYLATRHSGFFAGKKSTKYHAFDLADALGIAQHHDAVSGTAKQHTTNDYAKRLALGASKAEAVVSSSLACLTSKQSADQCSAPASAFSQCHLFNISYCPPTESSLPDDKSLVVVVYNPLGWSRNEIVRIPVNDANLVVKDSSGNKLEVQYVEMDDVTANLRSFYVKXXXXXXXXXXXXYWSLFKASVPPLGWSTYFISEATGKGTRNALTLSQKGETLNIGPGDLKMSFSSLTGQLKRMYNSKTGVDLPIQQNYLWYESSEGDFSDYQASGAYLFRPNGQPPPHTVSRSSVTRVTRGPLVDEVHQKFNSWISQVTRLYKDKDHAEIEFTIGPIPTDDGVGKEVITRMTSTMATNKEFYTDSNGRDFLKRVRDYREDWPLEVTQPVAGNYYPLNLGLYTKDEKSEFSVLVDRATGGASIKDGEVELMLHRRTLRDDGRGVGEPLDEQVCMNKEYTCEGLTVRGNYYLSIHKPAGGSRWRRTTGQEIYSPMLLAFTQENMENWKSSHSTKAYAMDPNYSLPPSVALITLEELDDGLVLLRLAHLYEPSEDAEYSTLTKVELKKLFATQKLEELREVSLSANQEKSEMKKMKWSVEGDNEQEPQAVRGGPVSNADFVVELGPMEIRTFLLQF
UniProt P22897, 19-1456 limits assumed: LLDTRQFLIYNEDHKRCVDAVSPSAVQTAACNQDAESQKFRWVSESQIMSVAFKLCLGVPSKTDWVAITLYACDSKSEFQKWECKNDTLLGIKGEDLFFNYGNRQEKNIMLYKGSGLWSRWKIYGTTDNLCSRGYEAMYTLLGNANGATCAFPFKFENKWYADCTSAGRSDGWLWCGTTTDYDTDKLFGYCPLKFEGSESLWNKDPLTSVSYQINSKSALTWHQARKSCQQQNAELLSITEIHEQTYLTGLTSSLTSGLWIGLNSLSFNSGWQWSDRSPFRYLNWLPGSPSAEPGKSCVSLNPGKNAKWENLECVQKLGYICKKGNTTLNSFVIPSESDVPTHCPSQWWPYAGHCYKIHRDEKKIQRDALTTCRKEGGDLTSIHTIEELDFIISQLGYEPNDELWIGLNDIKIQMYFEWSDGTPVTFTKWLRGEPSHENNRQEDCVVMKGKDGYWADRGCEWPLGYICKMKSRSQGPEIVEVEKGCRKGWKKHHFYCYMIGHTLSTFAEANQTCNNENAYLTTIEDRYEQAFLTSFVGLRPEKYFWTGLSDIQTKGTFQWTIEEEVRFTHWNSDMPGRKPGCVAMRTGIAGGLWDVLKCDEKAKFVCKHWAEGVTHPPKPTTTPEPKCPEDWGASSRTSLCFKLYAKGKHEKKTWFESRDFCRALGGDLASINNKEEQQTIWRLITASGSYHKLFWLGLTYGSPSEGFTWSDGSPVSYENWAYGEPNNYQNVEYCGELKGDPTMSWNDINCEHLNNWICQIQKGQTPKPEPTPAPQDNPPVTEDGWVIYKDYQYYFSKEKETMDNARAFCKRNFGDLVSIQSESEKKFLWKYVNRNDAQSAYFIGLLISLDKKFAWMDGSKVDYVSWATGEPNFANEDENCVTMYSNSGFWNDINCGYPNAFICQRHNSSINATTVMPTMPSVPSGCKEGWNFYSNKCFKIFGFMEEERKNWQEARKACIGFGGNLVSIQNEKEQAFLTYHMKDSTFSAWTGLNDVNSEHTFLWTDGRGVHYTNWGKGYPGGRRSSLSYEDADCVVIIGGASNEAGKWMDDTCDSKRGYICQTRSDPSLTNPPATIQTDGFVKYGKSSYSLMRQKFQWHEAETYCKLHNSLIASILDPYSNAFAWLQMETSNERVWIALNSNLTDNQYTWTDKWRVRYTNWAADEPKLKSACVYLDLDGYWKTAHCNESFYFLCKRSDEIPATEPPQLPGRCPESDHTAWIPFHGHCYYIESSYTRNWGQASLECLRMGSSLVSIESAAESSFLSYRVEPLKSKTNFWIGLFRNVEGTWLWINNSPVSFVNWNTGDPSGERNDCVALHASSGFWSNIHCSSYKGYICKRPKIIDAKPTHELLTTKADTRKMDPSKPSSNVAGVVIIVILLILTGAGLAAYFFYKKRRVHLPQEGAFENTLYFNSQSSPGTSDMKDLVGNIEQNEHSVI

The match of structure and compound is tentative. Where only a bound is given, the exact number is not on record here.

In general, Ki refers to a measure of affinity in units of concentration, obtained from inhibition or displacement.

Test [1] concerns the target lysosomal β-glucocerebrosidase (GCase) (Homo sapiens, UniProt P04062). In words: Human enzyme assay in fibroblast lysates, GCase. The conditions noted are these: for IC50: read-out: IC50 GCase, cell lysates (human fibroblasts), 4-MU glycoside substrate, 37 °C, 60 min.
In test [2] the target is α-glucosidase (S. cerevisiae) (Saccharomyces cerevisiae, UniProt P53341). In words: Inhibition studies with commercial enzymes (Ki), α-glucosidase. The conditions noted are these: read-out: Ki against α-glucosidase (S. cerevisiae); commercial enzyme, p-nitrophenyl glycopyranoside substrate, 37 °C; n.i. = no inhibition. In kind it is biochemical. On the procedure:
(§1) General Methods. All commercial chemicals were of reagent grade and were used without
(§2) further purification. 6-Azidohexyl α-D-manopyranoside (14),1 hepta(2,3-di-O-methyl-6-O-
(§3) propargyl)cyclomaltoheptaose (15),2 heptakis (2,6 -di-O-propargyl)cyclomaltoheptaose (16),3
(§4) pentynoic acid succinimide ester (17)4, the tetravalent mannosylated glycocluster 75 and 95 and
(§5) the azide-functionalized RAFT cyclopeptide 206 were prepared following the previously reported
(§6) protocols. All protected amino acids, Fmoc-Gly-Sasrin® and Rink Amide MBHA resins were
(§7) obtained from Advanced ChemTech Europe (Brussels, Belgium), BachemBiochimie SARL
(§8) (Voisins-Les-Bretonneux, France) and France Biochem S.A. (Meudon, France). […]
(§9) 600 controller and a Waters 2487 Dual Absorbance Detector equipped with a fraction collector. […]
(§10) monitoring at 214 nm and 250 nm using a linear A –B gradient. Optical rotations were measured […]
(§11) recorded at 500 (125.7) MHz with Bruker 500 DRX o BrukerAvance III spectrometers and […]
(§12) was carried out on Silica Gel 60. ESI mass spectra of βCD derivatives were recorded on a Bruker […]
(§13) glycopeptides were measured on an Esquire 3000 spectrometer from Bruker or on an Acquity […]
(§14) Inhibition studies with commercial enzymes. Inhibition constant (Ki) values were determined […]
(§15) rates. The absorbance of the resulting mixture was determined at 405 nm. […]
(§16) of Ki was determined from the slope of Dixon plots using a fixed concentration of substrate […]

Test [3] has as its target lysosomal α-mannosidase (LAMAN) (Homo sapiens, UniProt O00754). In words: Human enzyme assay in fibroblast lysates, LAMAN. The conditions noted are these: read-out: IC50 LAMAN (headed Manase in Fig. 3A); cell lysates (human fibroblasts), 4-MU glycoside substrate, 37 °C, 60 min.
For test [4], the target named is α-galactosidase (green coffee beans) (Coffea arabica, UniProt Q42656). In words: Inhibition studies with commercial enzymes (Ki), α-galactosidase. The format is biochemical, green coffee bean. The conditions noted are these: commercial enzyme, 37 °C. As for the experimental part:
as §1, §2, §3, §4, §5, §6, §7, §8, §9, §10, §11, §12, §13, §14, §15, §16

Test [5] concerns the target α-mannosidase (jack beans) (Canavalia ensiformis, UniProt C0HJB3). In words: Inhibition studies with commercial enzymes (Ki), α-mannosidase. In kind it is biochemical. The conditions noted are these: read-out: Ki against α-mannosidase (jack beans); commercial enzyme, phosphate-citrate buffer, 37 °C; Table S1. On the procedure: as §1, §2, §3, §4, §5, §6, §7, §8, §9, §10, §11, §12, §13, §14, §15, §16

A further test has as its target concanavalin A (ConA) (Canavalia ensiformis, UniProt P02866). In words: Enzyme-linked lectin assay (ELLA), HRP-ConA/mannan binding inhibition. On the set-up: species or system Concanavalia einsiformis. The conditions noted are these: read-out: IC50 for HRP-ConA/mannan binding inhibition, Figure S19A, values printed over bars, axis log [IC50, M].
Test [6] relates to β-glucosidase (bovine liver). In words: Inhibition studies with commercial enzymes (Ki), β-glucosidase. In kind it is biochemical. As for the experimental part:
as §1, §2, §3, §4, §5, §6, §7
(Voisins-Les-Bretonneux, France) and France Biochem S.A. (Meudon, France). For peptides and
glycopeptides, analytical RP-HPLC was performed on a Waters alliance 2695 separation module,
equipped with a Waters 2489 UV/visible detector. Analyses were carried out at 1.23 mL/min
(Interchim […]-SERIE, C18, 5 µm, 125x3.0 mm) with UV monitoring at 214 nm and 250
nm using a linear A–B gradient (buffer A: 0.09% CF3CO2H in water; buffer B: 0.09% CF3CO2H in
90% acetonitrile). Preparative HPLC was performed on Waters equipment consisting of a Waters
600 controller and a Waters 2487 Dual Absorbance Detector equipped with a fraction collector.
Purifications were carried out at 22.0 mL/min (VP 250x21 mm nucleosil 100-7 C18) with UV
monitoring at 214 nm and 250 nm using a linear A –B gradient. Optical rotations were measured
at 20 ± 2 °C in 1-dm tubes on a Jasco P-2000 polarimeter. […]
as §11, §12, §13, §14, §15, §16
Ki determinations and enzyme inhibition mode were determined from the slope of Lineweaver - […]

Test [7] has as its target recombinant human MMR (macrophage mannose receptor) (Homo sapiens, UniProt P22897). In words: Modified ELLA: inhibition of rhMMR binding to yeast mannan. The conditions noted are these: read-out: IC50 for inhibition of recombinant human MMR binding to yeast mannan, mean of three independent experiments ± SD.

In the case of `OC[C@H]1O[C@H](OCCCCCCn2cc(COC[C@H]3O[C@@H]4O[C@H]5[C@H](O)[C@@H](OCc6cn(CCCCCCO[C@H]7O[C@H](CO)[C@@H](O)[C@H](O)[C@@H]7O)nn6)[C@@H](O[C@H]6[C@H](O)[C@@H](OCc7cn(CCCCCCO[C@H]8O[C@H](CO)[C@@H](O)[C@H](O)[C@@H]8O)nn7)[C@@H](O[C@H]7[C@H](O)[C@@H](OCc8cn(CCCCCCO[C@H]9O[C@H](CO)[C@@H](O)[C@H](O)[C@@H]9O)nn8)[C@@H](O[C@H]8[C@H](O)[C@@H](OCc9cn(CCCCCCO[C@H]%10O[C@H](CO)[C@@H](O)[C@H](O)[C@@H]%10O)nn9)[C@@H](O[C@H]9[C@H](O)[C@@H](OCc%10cn(CCCCCCO[C@H]%11O[C@H](CO)[C@@H](O)[C@H](O)[C@@H]%11O)nn%10)[C@@H](O[C@H]%10[C@H](O)[C@@H](OCc%11cn(CCCCCCO[C@H]%12O[C@H](CO)[C@@H](O)[C@H](O)[C@@H]%12O)nn%11)[C@@H](O[C@H]3[C@H](O)[C@H]4OCc3cn(CCCCCCO[C@H]4O[C@H](CO)[C@@H](O)[C@H](O)[C@@H]4O)nn3)O[C@@H]%10COCc3cn(CCCCCCO[C@H]4O[C@H](CO)[C@@H](O)[C@H](O)[C@@H]4O)nn3)O[C@@H]9COCc3cn(CCCCCCO[C@H]4O[C@H](CO)[C@@H](O)[C@H](O)[C@@H]4O)nn3)O[C@@H]8COCc3cn(CCCCCCO[C@H]4O[C@H](CO)[C@@H](O)[C@H](O)[C@@H]4O)nn3)O[C@@H]7COCc3cn(CCCCCCO[C@H]4O[C@H](CO)[C@@H](O)[C@H](O)[C@@H]4O)nn3)O[C@@H]6COCc3cn(CCCCCCO[C@H]4O[C@H](CO)[C@@H](O)[C@H](O)[C@@H]4O)nn3)O[C@@H]5COCc3cn(CCCCCCO[C@H]4O[C@H](CO)[C@@H](O)[C@H](O)[C@@H]4O)nn3)nn2)[C@@H](O)[C@@H](O)[C@@H]1O`, the IC50 in test [1] is greater than 100 µM; in test [3], 11 µM; on concanavalin A (ConA), 1.2e-05 M. Moreover, the inhibitory constant (Ki) in test [2] was found to be 300 µM; in test [5], 118 µM. In addition, in test [4], the “Ki against α-galactosidase (green coffee bean)” value was “n.i”. In addition, the “Inhibition behaviour towards mammalian β-glucosidase (Glcase)” value in test [6] (bovine liver enzyme, in words) was “cancelled”. Also, in test [6] (commercial enzyme, p-nitrophenyl glycopyranoside substrate, 37 °C, Table S1), the “Ki against β-glucosidase (bovine liver)” value was “n.i”.
On to `CO[C@@H]1[C@@H](OC)[C@H]2O[C@H]3[C@H](OC)[C@@H](OC)[C@@H](O[C@H]4[C@H](OC)[C@@H](OC)[C@@H](O[C@H]5[C@H](OC)[C@@H](OC)[C@@H](O[C@H]6[C@H](OC)[C@@H](OC)[C@@H](O[C@H]7[C@H](OC)[C@@H](OC)[C@@H](O[C@H]8[C@H](OC)[C@@H](OC)[C@@H](O[C@@H]1[C@@H](COCc1cn(CCCCCCO[C@H]9O[C@H](CO)[C@@H](O)[C@H](O)[C@@H]9O)nn1)O2)O[C@@H]8COCc1cn(CCCCCCO[C@H]2O[C@H](CO)[C@@H](O)[C@H](O)[C@@H]2O)nn1)O[C@@H]7COCc1cn(CCCCCCO[C@H]2O[C@H](CO)[C@@H](O)[C@H](O)[C@@H]2O)nn1)O[C@@H]6COCc1cn(CCCCCCO[C@H]2O[C@H](CO)[C@@H](O)[C@H](O)[C@@H]2O)nn1)O[C@@H]5COCc1cn(CCCCCCO[C@H]2O[C@H](CO)[C@@H](O)[C@H](O)[C@@H]2O)nn1)O[C@@H]4COCc1cn(CCCCCCO[C@H]2O[C@H](CO)[C@@H](O)[C@H](O)[C@@H]2O)nn1)O[C@@H]3COCc1cn(CCCCCCO[C@H]2O[C@H](CO)[C@@H](O)[C@H](O)[C@@H]2O)nn1`, for which the “GCase/lysosomal α-glucosidase anomeric selectivity ratio” value in test [1] (cell (fibroblast) lysates) is reported as “over 100”. In addition, the IC50 in test [1] is 0.1 µM; in test [3], greater than 100 µM; in test [7], 1.8 µM; at concanavalin A (ConA), 0.00015 M. For the same molecule, the Ki was determined as 129 µM in test [2]; 451 µM in test [5]; 7.3 µM in test [6] (read-out: Ki against mammalian β-glucosidase (Glcase), bovine liver enzyme). Further, the “Ki against α-galactosidase (green coffee bean)” value in test [4] is given as “n.i”.
